# For at least one compound, name, drawing or mass did not settle the structure.
# Assays:
# IL-6 secretion from PBMC = assay: Cytokines release from peripheral blood mononuclear cell assay: IL-6; assay type: cell-based; settings: LPS-stimulated human PBMC, increasing concentration (FIG. 2)
# [1] = tested on: TNFα level in mouse plasma; assay: Septic shock mouse model (LPS); assay type: in vivo; settings: oral gavage 0.5 h before i.p. LPS 100 μg; serum at 2 h; C57BL6 mice (FIG. 3A, 3B)
# C/57black 6 mice = assay: Arthritis K/B×N mouse model; assay type: in vivo; settings: K/B×N serum transfer arthritis; oral gavage twice daily from 2 days before induction (FIG. 7)
# [2] = tested on: TNFα secretion from LPS-stimulated PBMC; assay: Cytokines release from peripheral blood mononuclear cell assay: TNFα; assay type: cell-based, human
# Protocol: Data are presented as percentage of LPS response.
# Data are presented as mean±SEM and the final concentration of each tested compound in the assay is 10 μM. Statistical analysis was performed by 2-way ANOVA followed by Dunnet's comparison to vehicle group, ****p<0.0001.
# Cytokines Release from Peripheral Blood Mononuclear Cell Assay
# Peripheral blood mononuclear cells (PBMC) are purified from heparinised fresh blood sample on a Lymphoprep gradient. PBMC are plated in 96-well assay plate (2×10^5 cells/well) and stimulated with or without LPS (100 ng/ml) and increasing concentration of compounds of the invention for 3 hours at 37° C. Cell supernatants are recovered after centrifugation and human soluble TNFα, IL-6 or other cytokines, are quantified using ELISA assay (R&D system) according manufacturer's recommendation.
# Additional results with compounds of the invention are set out in tabulated form (Table 5).
Structure (SMILES),IL-6 secretion from PBMC (IL-6 secretion from PBMC),TNFα plasmatic level [1],clinical score severity (C/57black 6 mice),inhibition of TNFα secretion from LPS-stimulated PBMC compared with compounds 39 and 43 disclosed in WO2011/151436A2 ([2]; 10 μM final concentration (FIG. 8)),"TNFα secretion from PBMC ([2]; LPS-stimulated human PBMC, increasing concentration (FIG. 1))"
"COc1ccccc1-c1ccc(C(=O)N2[C@@H](c3ccccc3Cl)CC[C@H]2C(=O)O)cc1 [Compound 1, (2S,5R)-5-(2-chlorophenyl)-1-(2′-methoxy-[1,1′-biphenyl]-4-carbonyl)pyrrolidine-2-carboxylic acid]",dose dependently inhibits,inhibits,decreases,–,–
"COc1ccc(C#N)cc1-c1ccc(C(=O)N2[C@@H](c3ccccc3Cl)CC[C@H]2C(=O)O)cc1 [Compound 345, (2S,5R)-5-(2-chlorophenyl)-1-(5′-cyano-2′-methoxy-[1,1′-biphenyl]-4-carbonyl)pyrrolidine-2-carboxylic acid]",–,significantly inhibits,–,greater inhibition,–
"COc1ccc(-c2ccc(C(=O)N3[C@@H](c4ccccc4Cl)CC[C@H]3C(=O)O)cc2)c(OC)n1 [Compound 236, (2S,5R)-5-(2-chlorophenyl)-1-(4-(2,6-dimethoxypyridin-3-yl)benzoyl)pyrrolidine-2-carboxylic acid]",–,–,–,–,dose dependently inhibit
